Results are given in words; binding and its absence hold for the method and conditions named. For part of these data: In cells and extracts the contact can be indirect. Some results given as binding are weak or reduced against the parent protein; the word gives no strength. Tags and fused reporters may be left off the sequences shown.

Amino acid sequences for entries named in this document (tags omitted). A change or cut given only in a name is not applied to a line headed by its entry.
UniProt Q3E8W4: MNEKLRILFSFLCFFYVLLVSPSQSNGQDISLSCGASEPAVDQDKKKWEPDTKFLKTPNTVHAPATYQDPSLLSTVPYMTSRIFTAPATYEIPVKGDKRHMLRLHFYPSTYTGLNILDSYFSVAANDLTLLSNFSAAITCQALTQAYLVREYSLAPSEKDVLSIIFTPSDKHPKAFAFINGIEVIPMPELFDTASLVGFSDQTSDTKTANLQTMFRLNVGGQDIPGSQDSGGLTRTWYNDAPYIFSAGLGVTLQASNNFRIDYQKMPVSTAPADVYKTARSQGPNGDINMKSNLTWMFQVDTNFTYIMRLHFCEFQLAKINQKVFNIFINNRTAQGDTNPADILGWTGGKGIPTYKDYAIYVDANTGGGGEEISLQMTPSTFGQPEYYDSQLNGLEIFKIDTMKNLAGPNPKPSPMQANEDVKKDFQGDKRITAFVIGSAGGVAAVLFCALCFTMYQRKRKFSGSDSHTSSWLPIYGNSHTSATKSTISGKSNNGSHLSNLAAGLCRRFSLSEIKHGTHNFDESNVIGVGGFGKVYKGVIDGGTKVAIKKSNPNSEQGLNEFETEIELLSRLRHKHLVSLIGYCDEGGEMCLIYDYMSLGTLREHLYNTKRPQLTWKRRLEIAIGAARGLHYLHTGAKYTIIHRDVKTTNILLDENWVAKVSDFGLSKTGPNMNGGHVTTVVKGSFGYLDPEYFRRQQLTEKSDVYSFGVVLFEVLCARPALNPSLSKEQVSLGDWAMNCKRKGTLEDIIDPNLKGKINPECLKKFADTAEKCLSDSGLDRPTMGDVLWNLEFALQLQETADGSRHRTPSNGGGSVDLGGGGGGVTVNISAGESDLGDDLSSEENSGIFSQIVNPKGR

Experiment [1] addresses LUC^N-AtSYP32 (Arabidopsis thaliana) (UniProt Q9LK09). The experiment in a line: split reporter.
Experiment [2] has as its target T1, AtSYP31 (yeast two-hybrid fusion) (Arabidopsis thaliana) (UniProt Q9FFK1).
T1 sequence: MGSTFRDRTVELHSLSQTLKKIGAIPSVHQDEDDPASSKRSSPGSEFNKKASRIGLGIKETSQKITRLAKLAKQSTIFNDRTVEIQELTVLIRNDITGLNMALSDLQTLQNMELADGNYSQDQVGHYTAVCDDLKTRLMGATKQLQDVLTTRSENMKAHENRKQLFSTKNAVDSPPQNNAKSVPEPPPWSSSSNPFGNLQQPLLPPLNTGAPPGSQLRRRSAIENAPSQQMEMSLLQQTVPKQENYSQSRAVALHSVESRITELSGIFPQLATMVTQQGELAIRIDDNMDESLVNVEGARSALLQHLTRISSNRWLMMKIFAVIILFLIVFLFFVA
The experiment in a line: two-hybrid.

Experiment [3] concerns the target T2, AtSYP32 (yeast two-hybrid fusion) (Arabidopsis thaliana) (UniProt Q9LK09).
T2 sequence: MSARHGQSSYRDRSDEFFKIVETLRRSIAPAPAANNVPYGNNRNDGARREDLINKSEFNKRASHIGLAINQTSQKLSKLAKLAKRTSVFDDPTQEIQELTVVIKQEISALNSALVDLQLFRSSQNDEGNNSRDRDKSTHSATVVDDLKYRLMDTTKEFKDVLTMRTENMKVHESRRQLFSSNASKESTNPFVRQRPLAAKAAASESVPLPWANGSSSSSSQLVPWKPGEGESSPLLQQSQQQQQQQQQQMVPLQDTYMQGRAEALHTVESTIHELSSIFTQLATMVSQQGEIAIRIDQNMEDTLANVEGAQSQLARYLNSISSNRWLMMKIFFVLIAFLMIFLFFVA
Put plainly: two-hybrid.

On to “LUC^C-ANX2 (from UniProt Q3E8W4 28-858) (receptor)”, for which the binding result in experiment [1] was “no binding”.

Turning to “ANX2 (yeast two-hybrid fusion) (from UniProt Q3E8W4 1-858) (receptor)”, the binding result in experiment [2] is recorded as “no binding”; in experiment [3], “binds”.

Regarding “LUC^C-XXT5 (from UniProt Q9CA75 1-457) (enzyme)”, the binding entry in experiment [1] is “binds”. On to LUC^C-BET12 (from UniProt Q94CG2 1-130), for which the binding result in experiment [1] was “binds”.

B1: SFT11 (yeast two-hybrid fusion) (protein, UniProt Q8VXX9 1-137)
chain: MASNPHRSGAGGSLYGGAAPYRSREGLSTRNAAGSEEIQLRIDPMHSDLDDEITGLHGQVRQLKNIAQEIGSEAKFQRDFLDELQMTLIRAQAGVKNNIRKLNMSIIRSGNNHIMHVVLFALLVFFVLYIWSKMFKR
Turning to B1, the binding result in experiment [3] was “binds”.

B2: GOS11 (yeast two-hybrid fusion) (protein, UniProt Q9LMP7 1-223)
chain: MDVPSSWDALRKQARKIEAQLDEQMHSYRRLVSTKALSKSDGNESDLEAGIDLLLRQLQQVNAQMQAWVSSGGSEMVSHTLTRHQEILQDLTQEFYRHRSSLRAKQEHASLLEDFREFDRTRLDLEDGYGSEQALIKEHMGINRNTAQMDGVISQAQATLGTLVFQRSTFGGINSKLSNVASRLPTVNTILAAIKRKKSMDTIILSLVAAVCTFLIFIYWITK
Take B2: in experiment [3], the binding result was “binds”.

B3: VAMP714 (yeast two-hybrid fusion) (protein, UniProt Q9FMR5 1-221)
chain: MAIVYAVVARGTVVLAEFSAVTGNTGAVVRRILEKLSPEISDERLCFSQDRYIFHILRSDGLTFLCMANDTFGRRVPFSYLEEIHMRFMKNYGKVAHNAPAYAMNDEFSRVLHQQMEFFSSNPSVDTLNRVRGEVSEIRSVMVENIEKIMERGDRIELLVDKTATMQDSSFHFRKQSKRLRRALWMKNAKLLVLLTCLIVFLLYIIIASFCGGITLPSCRS
As for B3, the binding entry in experiment [3] is listed as “binds”.

B4: MEMB11 (yeast two-hybrid fusion) (protein, UniProt Q9SJL6 1-225)
chain: MASGIVEGGGSLSDVYSSAKRILLKARDGIERLERFESSSMDSPDLASSVKRDITEVRSLCSNMDTLWRSIPVKSQRDLWRRKTEQVGEEAEYLNLSLEKYMSRNQRKMLEAKERADLLGRASGEGAHILQIFDEEAQAMSSVKNSKRMLEESFSSGVAILSKYAEQRDRLKSAQRKALDVLNTVGLSNSVLRLIERRNRVDTWIKYAGMIATLVILYLFIRWTR
In the case of B4, the binding entry is recorded as “no binding” in experiment [2] and “binds” in experiment [3].

B5: SEC22 (yeast two-hybrid fusion) (protein, UniProt Q94AU2 1-218)
chain: MVKMTLIARVTDGLPLAEGLDDGRDLPDSDMYKQQVKALFKNLSRGQNDASRMSVETGPYVFHYIIEGRVCYLTMCDRSYPKKLAFQYLEDLKNEFERVNGPNIETAARPYAFIKFDTFIQKTKKLYQDTRTQRNIAKLNDELYEVHQIMTRNVQEVLGVGEKLDQVSEMSSRLTSESRIYADKAKDLNRQALIRKWAPVAIVFGVVFLLFWVKNKLW
As to B5, the binding entry is given as “no binding” in experiment [2] and “binds” in experiment [3].

B6: LUC^C-SEC22 (protein, UniProt Q94AU2 1-218)
chain: B5 chain
Regarding B6, the binding result in experiment [1] was “binds”.

B7: SFT12 (yeast two-hybrid fusion) (protein, UniProt Q8L9S0 1-134)
chain: MASNRGAGGSLYGGADPYRSREGLSTRNASGSEEIQLRIDPMHSDLDDEILGLHGQVRQLKNIAQEIGSEAKSQRDFLDELQMTLIRAQAGVKNNIRKLNLSIIRSGNNHIMHVVLFALLLFFILYMWSKMFKR
Turning to B7, the binding result in experiment [3] was “binds”.

B8: XyG xylosyltransferase XXT5 (yeast two-hybrid fusion) (enzyme, UniProt Q9CA75 1-457)
chain: MGQDGSPAHKRPSGSGGGLPTTTLTNGGGRGGRGGLLPRGRQMQKTFNNIKITILCGFVTILVLRGTIGVGNLGSSSADAVNQNIIEETNRILAEIRSDSDPTDLDEPQEGDMNPNATYVLGPKITDWDSQRKVWLNQNPEFPSTVNGKARILLLTGSPPKPCDNPIGDHYLLKSVKNKIDYCRLHGIEIVYNMAHLDKELAGYWAKLPMIRRLMLSHPEVEWIWWMDSDALFTDILFQIPLARYQKHNLVIHGYPDLLFDQKSWIALNTGSFLLRNCQWSLDLLDAWAPMGPKGPIRDEAGKVLTAYLKGRPAFEADDQSALIYLLLSQKDTWMEKVFVENQYYLHGFWEGLVDRYEEMIEKYHPGLGDERWPFVTHFVGCKPCGSYADYAVERCLKSMERAFNFADNQVLKLYGFSHRGLLSPKIKRIRNETVSPLEFVDKFDIRRTPVETKPQN
Turning to B8, the values for the binding result in experiment [2] and in experiment [3] were “no binding” and “binds”, respectively.

B9: BET11 (yeast two-hybrid fusion) (protein, UniProt Q9M2J9 1-122)
chain: MNPRREPRGGRSSLFDGIEEGGIRAASSYSHEINEHENERALEGLQDRVILLKRLSGDINEEVDTHNRMLDRMGNDMDSSRGFLSGTMDRFKTVFETKSSRRMLTLVASFVGLFLVIYYLTR
With B9, the binding entry in experiment [2] is “no binding”; in experiment [3], “binds”.

B10: GOS12 (yeast two-hybrid fusion) (protein, UniProt O22151 1-257)
chain: MTESSLDLQESGWEELRREARKIEGDLDVKLSSYAKLGARFTQGDTDLVMNYEKVLKCVLVSGYVDTGSPTVGSGRSWKSMEMEIQSLLEKLLDINDSMSRCAASAAPTTSVTQKLARHRDILHEYTQEFRRIKGNINSLREHAELLSSVRDDISEYKASGSMSPGVQVLRERASIHGSISHIDDVIGQAQATRAVLGSQRSLFSDVQGKVKNLGDKFPVIRGLLGSIKRKRSRDTLILSAVIAACTLFLIIYWLSK
Turning to B10, in experiment [3], the binding entry was “binds”.

B11: SEC31B (yeast two-hybrid fusion) (protein, UniProt Q8L611 1-1104)
chain: MACIKGVGRSASVALAPDAPYMAAGTMAGAVDLSFSSSANLEIFKLDFQSDDRDLPLVGEIPSSERFNRLAWGRNGSGSEEFALGLIAGGLVDGNIDLWNPLSLIGSQPSENALVGHLSVHKGPVRGLEFNAISSNLLASGADDGEICIWDLLKPSEPSHFPLLKGSGSATQGEISFISWNRKVQQILASTSYNGTTVIWDLRKQKPIINFADSVRRRCSVLQWNPNVTTQIMVASDDDSSPTLKLWDMRNIMSPVREFTGHQRGVIAMEWCPSDSSYLLTCAKDNRTICWDTNTAEIVAELPAGNNWNFDVHWYPKIPGVISASSFDGKIGIYNIEGCSRYGVEENNFGTAPLKAPKWYKRPVGASFGFGGKLVSCHARAPAKGTSSILSEVFLHSLVTEQSLVSRTSEFEAAIENGDMTSLRGLCEKKSEETESEEEKETWGLLKIMFEEEGTSRTKLISHLGFTLPVAEKDQAVDGLSSDLNGIRLEDTAADALDLDDSNEAAAFAMDNGEDFFNNFPAKPDTPVSTSAKDFMPSDTDFSTKGEETQEMQEEEEESSDPVFDNAIQRALIVGDYKEAVDQCITANKMADALVIAHVGGTALWESTREKYLKTSSAPYMKVVSAMVNNDLRSLIYTRSHKFWKETLALLCTFAQGEQWTTLCDALASKLMAAGNTLAAVLCYICAGNVDRTVEIWSRSLANERDGRSYAELLQDLMEKTLVLALATGNKKFSASLCKLFESYAEILASQGLLTTAMKYLKVLDSGGLSPELSILRDRISLSAEPETNTTASGNTQPQSTMPYNQEPTQAQPNVLANPYDNQYQQPYTDSYYVPQVSHPPMQQPTMFMPHQAQPAPQPSFTPAPTSNAQPSMRTTFVPSTPPALKNADQYQQPTMSSHSFTGPSNNAYPVPPGPGQYAPSGPSQLGQYPNPKMPQVVAPAAGPIGFTPMATPGVAPRSVQPASPPTQQAAAQAAPAPATPPPTVQTADTSNVPAHQKPVIATLTRLFNETSEALGGARANTTKKREIEDNSRKLGALFVKLNSGDISKNAADKLAQLCQALDNNDFSTALQIQVLLTTSEWDECNFWLATLKRMMVKARQNVR
On to B11, for which the binding entry in experiment [2] and in experiment [3] was “binds” each time.

B12: BET12 (yeast two-hybrid fusion) (protein, UniProt Q94CG2 1-130)
chain: MNFRRENRASRTSLFDGLDGLEEGRLRASSSYAHDERDNDEALENLQDRVSFLKRVTGDIHEEVENHNRLLDKVGNKMDSARGIMSGTINRFKLVFEKKSNRKSCKLIAYFVLLFLIMYYLIRLLNYIKG
Regarding B12, the binding entry in experiment [2] is “no binding”; in experiment [3] it was “binds”.

B13: MEMB12 (yeast two-hybrid fusion) (protein, UniProt Q9FK28 1-219)
chain: MASGTVGGLSEVYSSAKRILLRARNGIEKLERFDSDPTDLASSVKRDITEVQSLCSNMDGLWRSIPVKSQRDLWRRKSEQVGEEAEYLNQSLEKYMWRNQRKMLEAKERADLLGRGSGEGAHILQIFDEEAQGMNSVKNSKRMLEDSFQSGVAILSKYAEQRDRLKSAQRKALDVLNTVGLSNSVLRLIERRNRVDTWIKYAGMIATLVILYLFIRWTR
As for B13, the binding entry in experiment [3] was “binds”.

Values taken from doi:10.1101/2023.02.03.527076.
